Data published in article PMC9794665.

Molecular target: T1, OsSAP6 fused to nLUC (pCAMBIA1300-nLUC-OsSAP6) (rice (Oryza sativa)) (UniProt Q852K5)
T1 sequence: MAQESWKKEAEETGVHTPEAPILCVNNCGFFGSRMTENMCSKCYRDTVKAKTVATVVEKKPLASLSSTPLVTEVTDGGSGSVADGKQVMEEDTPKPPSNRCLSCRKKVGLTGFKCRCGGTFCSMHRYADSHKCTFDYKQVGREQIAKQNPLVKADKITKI
Experiment: split reporter; LUC complementation imaging (LCI): pCAMBIA1300-nLUC-OsSAP6 and pCAMBIA1300-cLUC-OsPK5 co-injected by Agrobacterium into N. benthamiana leaves, 48 h, chemiluminescence imaging after luciferin

binding: binds
Substance: OsPK5 fused to cLUC (pCAMBIA1300-cLUC-OsPK5) (rice (Oryza sativa)) (enzyme)

Results are given in words; binding and its absence hold for the method and conditions named. Binding seen in cells or lysates may run through a third protein. Binding can be weak; no strength is given. Tags and fused reporters may be left off the sequences shown.
